# Library screening results

Amino acid sequences for entries named in this document (tags omitted).
UniProt E9BF75, entry or part of it: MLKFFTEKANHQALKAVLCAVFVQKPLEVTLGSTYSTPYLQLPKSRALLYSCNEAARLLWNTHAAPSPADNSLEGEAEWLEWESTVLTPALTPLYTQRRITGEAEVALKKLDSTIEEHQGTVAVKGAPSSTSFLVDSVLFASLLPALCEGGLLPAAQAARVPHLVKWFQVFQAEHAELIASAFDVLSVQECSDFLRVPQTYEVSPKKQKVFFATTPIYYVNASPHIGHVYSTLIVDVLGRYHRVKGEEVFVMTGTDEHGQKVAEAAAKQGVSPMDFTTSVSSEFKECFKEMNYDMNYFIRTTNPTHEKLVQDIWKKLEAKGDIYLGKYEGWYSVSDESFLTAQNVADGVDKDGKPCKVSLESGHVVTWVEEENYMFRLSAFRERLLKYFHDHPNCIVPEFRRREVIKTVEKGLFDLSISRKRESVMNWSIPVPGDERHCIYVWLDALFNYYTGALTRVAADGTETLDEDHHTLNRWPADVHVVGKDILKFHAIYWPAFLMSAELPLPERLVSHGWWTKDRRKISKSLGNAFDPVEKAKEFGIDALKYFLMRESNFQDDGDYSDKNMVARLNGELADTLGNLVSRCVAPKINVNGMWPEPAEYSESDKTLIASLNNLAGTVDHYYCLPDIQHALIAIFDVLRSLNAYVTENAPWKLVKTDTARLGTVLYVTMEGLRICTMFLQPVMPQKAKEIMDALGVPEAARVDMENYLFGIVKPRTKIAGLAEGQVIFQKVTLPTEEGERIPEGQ

A: 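Assay on Mycobacterium tuberculosis, filed only as a heat shock assay from Cornell; the read-out is not stated. The concentration is filed as 10 mM, unlikely as a test dose, so the dose is not known. The record gives no direction; compounds that gave an IC50 in retests scored well above the rest, so higher reads as stronger inhibition. About 69,000 compounds were tested under these conditions; 1.4% (about 930) showed 50% or more at least once.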
B: 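Primary screen of methionyl-tRNA synthetase; the read-out is not stated. Target: Methionyl-tRNA synthetase (putative), Leishmania donovani (UniProt E9BF75). The test concentration is not given. Values are per cent inhibition. About 68,000 compounds were tested under these conditions; 0.035% (about 24) showed 50% or more at least once.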
C: 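Whole-cell assay for inhibitors of Mycobacterium tuberculosis growth, labelled Cornell in the record; the read-out is not stated. The concentration is filed as 10 mM, unlikely as a test dose, so the dose is not known. The record gives no direction; compounds strong in two other growth screens of this library score well above the rest, so higher reads as stronger inhibition. Size under these conditions: about 53,000 compounds, about 900 of them at 50% or above in at least one test.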

Results are percentages, as filed. How 0% and 100% were set is not recorded. Most values in the screen are low, and negative values occur. The compounds are a random part of those screened. A dash means the value is not listed here; it may have been measured.

| Compound | A | B | C |
|---|---|---|---|
| `CCc1cnc(N2CCN(Cc3ccncc3)CC2)s1` | -28.58 | 14.04 | 21.3 |
| `COc1ccc2c(ccn2CC(=O)N2CCCC2c2cnn(C)c2)c1` (stereo not shown) | 7.227 | 13.04 | 26.65 |
| `O=c1n(CCNc2cccc3ccccc23)nc2ccccn12` | -1.354 | -10.6 | 43.51 |
| `CC(C)NCC1OCCc2cn(C)nc21` (stereo not shown) | - | 7.268 | - |
| `CN(C)C(=O)COCC1CN(CC2CCOCC2)Cc2ncn(C)c21` (stereo not shown) | -21.68 | 11.17 | - |
| `CCc1ncc2c(n1)CN(CC(=O)Nc1nncs1)CC2` | -13.97 | 13.01 | 3.685 |
| `Cc1cccc(COc2ccccc2C(=O)N2CCC(C(N)=O)CC2)c1` | 5.2 | 6.406 | 41.71 |
| `Cc1cccc(N2CCN(C(=O)CNCCn3cccn3)CC2)c1` | -22.03 | 1.412 | -30.7 |
| `O=C(NCCCn1cncn1)N1CCCC(N2CCCC2)C1` (stereo not shown) | 3.313 | 11.22 | - |
| `O=C(O)c1cc(-c2ccc3c(c2)OCO3)cc(S(=O)(=O)NC2CC2)c1` | -2.296 | 3.352 | -24.98 |
| `CCC(=O)N1Cc2nccn2CC(CN(C)Cc2cccnc2)C1.O=C(O)C(F)(F)F.O=C(O)C(F)(F)F` (stereo not shown) | 10.85 | - | - |
| `Cc1cn2c(n1)CCC(NS(=O)(=O)c1ccc(C)s1)C2` (stereo not shown) | -15.32 | 9.938 | - |
| `Cc1nc(-c2ccnn2C)cc(C2CCCN(S(C)(=O)=O)C2)n1` (stereo not shown) | 11.33 | 11.05 | 29.58 |
| `CN(C)C(=O)c1cnc2n1CCN(Cc1ccccc1)C2` | - | 7.317 | - |
| `CN(C)CCNC(=O)C1Cc2nc(-c3ccccc3)sc2N1CC1CC1.O=C(O)C(F)(F)F` (stereo not shown) | -30.08 | - | -43.37 |
| `Nc1no[n+]([O-])c1C(=O)NCc1cccnc1` | -1.949 | 8.065 | 3.52 |
| `CN(Cc1ccsc1)C(=O)c1cc(S(=O)(=O)N(C)C)ccc1Cl` | 10.06 | 7.532 | 9.575 |
| `O=C(NCCNc1ccc(Br)cn1)c1ccc(O)cc1` | 14.16 | 18.66 | 19.77 |
| `COCc1ccccc1CNC(=O)CN1CCCC1c1noc(C)n1` (stereo not shown) | 16.02 | 8.947 | - |
| `COc1ccc(C)cc1C(=O)N1C[C@@H](CN(C)CCO)[C@@H](CO)C1` | 7.999 | 18.44 | 7.77 |
| `CCc1nc(C)c(CC(=O)N2CCC3(CC2)OCCCC3O)c(=O)[nH]1` (stereo not shown) | -1.661 | 4.336 | 2.223 |
| `COCCN(Cc1cccnc1)S(=O)(=O)c1cc(C)ccc1F` | -31.64 | 3.183 | 11.15 |
| `Cc1c(Br)cccc1C(=O)NCC1CCNCC1.Cl` | -9.802 | - | -5.905 |
| `COCc1ccc(C(=O)NCCCNc2ccc(C(F)(F)F)cn2)cc1` | 27.36 | 14.74 | - |
| `O=C(O)C(F)(F)F.[H][C@@]12CN(C3CCOCC3)C[C@@]1([H])N(Cc1cccc(C)c1)C(=O)CO2` | -17.89 | - | 8.381 |
| `Cc1cc(NC(=O)C(C)Nc2cccc(COCc3ccco3)c2)on1` (stereo not shown) | 4.042 | 14.36 | 26.53 |
| `Cn1cc(CN2CCC3(CCN(c4cnn(C)c4)C3=O)C2)cn1` (stereo not shown) | - | 4 | - |
| `[H][C@]12CN(C(=O)c3nonc3C)CC[C@@]1(O)CCN(C1CCCCC1)C2` | 8.835 | - | 27.8 |
| `CCn1nccc1C(=O)N1CCCCC1CCc1ccc(O)cc1` (stereo not shown) | -9.048 | 2.481 | 13.54 |
| `CC[C@@]1(O)CCN(C(=O)CN(C)Cc2ccc(F)cc2)C[C@H]1O` | -2.553 | 3.015 | -17.45 |
| `Cc1ccc(CN2CCC3(CC2)CCN(Cc2ccoc2)CC3)cc1` | - | 14.6 | - |
| `COCC(=O)N1C[C@@H](C)[C@](O)(C(C)C)C1` | 3.832 | 17.48 | 19.86 |
| `COCC1CN(CC2CC2)Cc2nn(C)cc21.O=C(O)C(F)(F)F` (stereo not shown) | -7.674 | - | -13.31 |
| `CN1CCN(C(=O)c2cn3ccsc3n2)[C@H]2CS(=O)(=O)C[C@H]21` | - | 17.77 | - |
| `OC1(CNc2ccc(Br)cn2)CCSCC1` | -19.4 | 4.11 | - |
| `O=C(CCc1nccs1)N1CCN(c2ncccn2)CC1` | -3.806 | 18.75 | - |
| `O=C(C1CC(c2ccccc2)=NO1)N1CCCCc2ccccc21` (stereo not shown) | 12.04 | 15.41 | - |
| `CCOc1cc(C(=O)N2CCCC(c3noc(CC)n3)C2)ccn1` (stereo not shown) | -12.55 | 17.04 | -0.9533 |
| `c1cc(CN2CC[C@H]3CO[C@H](CN4CCOCC4)[C@H]3C2)cs1` | - | 5.076 | - |
| `O=C(O)C(F)(F)F.c1ccc2c(c1)N(CC1CCOC1)CC21CCN(c2cnccn2)CC1` (stereo not shown) | 16.03 | - | 28.7 |
| `CC(C)N1CCO[C@H]2CN(C(=O)c3ccsc3)C[C@H]21` | - | 7.333 | - |
| `C[C@H](NC(=O)C1CCCC1)c1nc2cc(-c3ccc(F)cc3)ncn2n1` | -1.244 | 9.003 | -11.42 |
| `Cc1oc(C)c(C(=O)N2CCN(Cc3cscn3)CC2)c1C` | -1.996 | 23.2 | - |
| `c1ccc(N2CCOCC3(CCCN(c4nccs4)C3)C2)nc1` (stereo not shown) | -5.038 | 21.47 | 23.66 |
| `CC(C)CN1C(=O)CO[C@@H]2CN(C(=O)[C@H]3CCCO3)C[C@H]21` | - | 13.49 | - |
| `CCn1cnnc1CNC(=O)N1CCN(c2ccccc2O)CC1` | -2.607 | 15.1 | -28.45 |
| `Cc1cnc(N2C[C@@H]3CCN(CC4CC4)C(=O)[C@H]3C2)nc1` | - | 14.79 | - |
| `Cc1nn(C)c(C)c1C1CCCN1CC(=O)Nc1cccnc1` (stereo not shown) | -20.32 | 15.03 | - |
| `Cc1cccc(C(=O)N2CCN(S(C)(=O)=O)[C@@H](C)C2)c1C` | -14.52 | 1.478 | -2.606 |
| `Cc1noc(C2CN(S(=O)(=O)C3CC3)Cc3ccnn3C2)n1` (stereo not shown) | -20.94 | 5.839 | -12.02 |
| `Cc1cc(NCCNc2ncccc2C)n2nc(C)cc2n1` | 16.17 | 14.52 | 25.09 |
| `O=C(NCc1ccc(Cl)cc1)C1CCCN(c2ccc3nncn3n2)C1` (stereo not shown) | -10.05 | 16.21 | 8.603 |
| `Cc1ccc(CC(=O)N(C)CC2(O)CCN(c3ccccn3)C2)s1` (stereo not shown) | -0.5559 | 15.41 | 4.472 |
| `COCC1CN(Cc2ccccn2)Cc2cn(C)nc21` (stereo not shown) | - | 15.56 | - |
| `COc1ncc(CN2CCCC2c2[nH]ncc2C(=O)N(C)C)cn1` (stereo not shown) | -23.45 | 9.449 | -33.25 |
| `O=C1CC2(CCN(c3nccc(-c4cc(C(=O)O)ccn4)n3)CC2)CN1` | -16.25 | 1.361 | -29.46 |
| `CN(C)[C@@H]1CO[C@H](CNC(=O)Nc2ccccc2)[C@H]1O` | -35.12 | 8.475 | 3.734 |
| `CC(C)NC(=O)c1ccc2nnc(C3CCN(C(=O)NC(C)C)C3)n2c1` (stereo not shown) | 0.03345 | -5.764 | -4.419 |
| `CNC(=O)C1CCC(NC(=O)c2cc(C3CC3)n(C(C)(C)C)n2)CC1` (stereo not shown) | 7.469 | 8.943 | 7.406 |
| `O=C(O)C(F)(F)F.[H][C@]12CN(Cc3cccs3)C[C@@]1([H])OCCN(C(=O)c1ccsc1)C2` | 11.57 | - | 17.14 |
| `[H][C@]12CCCCN1CCC[C@@]2(O)CN1CCN(c2ccncc2C)CC1` | -5.658 | - | 21.06 |
| `CC(C)(C)CC(=O)N1CCC(c2nn(CCN)c3nccnc23)C1` (stereo not shown) | -8.189 | 20.71 | -1.305 |
| `c1ccc2c(NC3CCc4ncnn4C3)ncnc2c1` (stereo not shown) | -3.582 | 5.932 | 3.432 |
| `CS(=O)(=O)N1CCO[C@@H]2CN(Cc3ccc(F)cc3)C[C@@H]2C1` | - | 9.343 | - |
| `CCn1ncc2c1C(COCC1CC1)N(Cc1c(C)noc1C)CC2` (stereo not shown) | - | 5.923 | - |
| `CNC(=O)C1(c2cnccn2)CCCN1C(=O)c1ccc(OC)cc1` (stereo not shown) | -30.14 | 7.292 | -23.3 |
| `CC(C)c1ncc(Cl)c(C(=O)N2CCN(C3CCCC3)CC2)n1` | 4.512 | 8.06 | -5.825 |
| `CCNC(=O)[C@@H]1C[C@@H](NC(=O)c2cccnc2O)CN1Cc1ccsc1` | -17.75 | 15.56 | 0.0604 |

The last 9 entries again:

| Compound | A | B | C |
|---|---|---|---|
| `O=C(O)C(F)(F)F.[H][C@]12CN(Cc3cccs3)C[C@@]1([H])OCCN(C(=O)c1ccsc1)C2` | 11.57 | - | 17.14 |
| `[H][C@]12CCCCN1CCC[C@@]2(O)CN1CCN(c2ccncc2C)CC1` | -5.658 | - | 21.06 |
| `CC(C)(C)CC(=O)N1CCC(c2nn(CCN)c3nccnc23)C1` (stereo not shown) | -8.189 | 20.71 | -1.305 |
| `c1ccc2c(NC3CCc4ncnn4C3)ncnc2c1` (stereo not shown) | -3.582 | 5.932 | 3.432 |
| `CS(=O)(=O)N1CCO[C@@H]2CN(Cc3ccc(F)cc3)C[C@@H]2C1` | - | 9.343 | - |
| `CCn1ncc2c1C(COCC1CC1)N(Cc1c(C)noc1C)CC2` (stereo not shown) | - | 5.923 | - |
| `CNC(=O)C1(c2cnccn2)CCCN1C(=O)c1ccc(OC)cc1` (stereo not shown) | -30.14 | 7.292 | -23.3 |
| `CC(C)c1ncc(Cl)c(C(=O)N2CCN(C3CCCC3)CC2)n1` | 4.512 | 8.06 | -5.825 |
| `CCNC(=O)[C@@H]1C[C@@H](NC(=O)c2cccnc2O)CN1Cc1ccsc1` | -17.75 | 15.56 | 0.0604 |

Measurements from “University of Dundee, Small-Polar-MMV Screening Library” (2021), ChEMBL document CHEMBL3988442.